# Binding screen against folded nucleic acids

Targets (5′ to 3′):
TPP: TPP riboswitch RNA three-way junction, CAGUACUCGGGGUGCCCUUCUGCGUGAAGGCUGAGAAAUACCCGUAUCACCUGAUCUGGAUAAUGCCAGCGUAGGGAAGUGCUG. About 24,000 compounds screened, about 160 hits.
SAM-II: SAM-II riboswitch RNA pseudoknot, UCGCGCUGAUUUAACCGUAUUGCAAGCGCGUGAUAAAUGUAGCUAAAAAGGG. About 21,000 compounds screened, about 200 hits.
PreQ1: PreQ1 riboswitch RNA pseudoknot, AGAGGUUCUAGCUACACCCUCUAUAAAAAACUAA. From B. subtilis. About 24,000 compounds screened, about 170 hits.

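Each compound is printed as two spots on a slide made to bind it covalently, so it has no test concentration; the read-out is fluorescence of the bound, labelled oligonucleotide. For the PreQ1, TPP and SAM-II riboswitches the laboratory earlier reported (doi:10.1038/s41467-019-09493-3) 1 µM RNA, 2 h, and a rule that included a mean Z-score above 3 (spot signal-to-noise against the whole library), a score well above that on a control array, and duplicate spots agreeing (coefficient of variation under 100). The data file gives only the calls; its cut-offs may differ, and compounds hitting several targets are kept. These are primary screening calls, not affinities; a compound without a hit may have attached poorly or may still bind in solution.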 “Y” means called a hit, “N” means screened and not called a hit. This is an unselected part of the compounds tested. A dash means that no call is listed here.

| # | SMILES | TPP | SAM-II | PreQ1 |
|---|---|---|---|---|
| 1 | `Cc1cccc(NCCNc2cccc(C)c2)c1` | N | N | N |
| 2 | `Cn1cnc([N+](=O)[O-])c1Sc1ncnc2nc[nH]c12` | N | N | N |
| 3 | `COc1ccc(S(=O)(=O)c2cnc3ccc(F)cc3c2NCc2ccc(C)cc2)cc1` | N | - | N |
| 4 | `CC(C)c1ccc(Nc2c(-c3ccco3)nc3ccccn23)cc1` | N | N | N |
| 5 | `COc1ccc(-c2c(C)nn3c(N)c(-c4ccc(Cl)cc4)cnc23)cc1` | N | - | N |
| 6 | `COCCCNc1nc2c(S(=O)(=O)c3ccccc3)nnn2c2ccccc12` | N | N | N |
| 7 | `CCO[C@H]1C[C@@H](O)C12CCN(C1CCN(c3ccccc3)CC1)CC2` | N | N | N |
| 8 | `OCc1ccc(CC2CCN(Cc3cnc(C4CCCCC4)nc3)C2)cc1` (stereo not given) | N | N | N |
| 9 | `CCCC(CCC)n1nc(O)cc1N` | N | - | N |
| 10 | `COC(=O)c1nnn(-c2cccc3cccnc23)c1N` | N | N | N |
| 11 | `Cc1nc(-c2nc(CCO)n(-c3ccccc3Cl)n2)cs1` | N | N | N |
| 12 | `CC(=O)c1cc(CC(=O)N2[C@H]3CCNC[C@@H]2CC3)cs1` | N | N | N |
| 13 | `CNc1cc(C)nc2c(-c3ccc(F)cc3)cnn12` | N | - | N |
| 14 | `Cc1ncc(CO)c(CN)c1O.Cl.Cl` | N | N | N |
| 15 | `CCOC(=O)c1cnc2c(C)cc(C)cc2c1NCCN1CCOCC1` | N | N | N |
| 16 | `Cc1cc(Nc2ccccc2)nc2cc(O)ccc12` | N | N | N |
| 17 | `NC(=O)c1cccc(-c2cccc(OC(=O)NC3CCCCC3)c2)c1` | N | N | N |
| 18 | `Cc1c(Cl)cccc1NC(=S)NCC(O)c1ccccc1` (stereo not given) | N | N | N |
| 19 | `O=C(c1coc(CN2CCOCC2)c1)N1[C@H]2CCNC[C@@H]1CC2` | N | N | N |
| 20 | `COCC(C)NCc1cc(-c2ccc(OC)cc2)on1` (stereo not given) | N | N | N |
| 21 | `Cc1ccc2c(N)c(C(=O)c3ccc(Cl)cc3)sc2n1` | N | N | N |
| 22 | `COc1ccc(-c2cc3nc(C)cc(NCC(C)C)n3n2)cc1OC` | N | - | N |
| 23 | `Cc1cc(C)n(Cc2cccc(C(=O)N3CCOCC(O)C3)c2)n1` (stereo not given) | N | N | N |
| 24 | `O=C1C2(c3ccccc3)CN(CCCO)CC1(c1ccccc1)CN(CCCO)C2` | N | N | N |
| 25 | `Cc1nnc2c(Nc3ccccc3Cl)nc3ccccc3n12` | N | N | N |
| 26 | `CCOc1ccc(CCCC(=O)NC[C@H]2CNC[C@@H]2CO)cc1C` | N | N | N |
| 27 | `Cc1nc(N2C[C@@H](CN3CCN(C)CC3)[C@@H](CO)C2)nc2c1CCCC2` | N | N | N |
| 28 | `NC(=O)CCn1cc(CNCc2cc(-c3ccco3)on2)c2ccccc21` | N | N | N |
| 29 | `Cc1ccc(Nc2c(-c3ccc(N(C)C)cc3)nc3cc(C)ccn23)cc1` | N | N | N |
| 30 | `C/C(=N\NC(N)=O)c1ccc(Cl)c(-n2cccc2)c1` | N | N | N |
| 31 | `N#CC1=C(N)N(c2ccccc2)C2=C(C(=O)CCC2)C1c1ccsc1` (stereo not given) | N | N | N |
| 32 | `Cn1c(=O)c2c(-c3ccccc3Cl)n(CCCO)cc2n(C)c1=O` | N | N | N |
| 33 | `CC(=O)OCC1OC(COC(C)=O)(c2ccc(C)cc2)C(OC(C)=O)C1OC(C)=O` (stereo not given) | N | N | N |
| 34 | `CC(=O)C1=C(O)C(=O)N(CCNCCO)C1c1ccc(Cl)cc1` (stereo not given) | N | N | N |
| 35 | `Cc1cnccc1NCCNC1CCN(CC(C)C)CC1` | N | N | N |
| 36 | `NC1=C(c2nc3ccccc3[nH]2)C(=O)CN1c1cc(Cl)ccc1Cl` | N | - | N |
| 37 | `O=C1NC(O)CCN1[C@@H]1O[C@H](CO)[C@H](O)[C@H]1O` (stereo not given in full) | N | N | N |
| 38 | `NCC(=O)N1CCC(n2nccc2NC(=O)c2cccnc2)CC1` | N | N | N |
| 39 | `O=c1oc2ccccc2c(NCC2CCCCC2)c1NS(=O)(=O)c1cccc(Cl)c1` | N | N | N |
| 40 | `N#Cc1sc2nc(-c3cccs3)cc(C(F)(F)F)c2c1N` | N | N | N |
| 41 | `CC(C)CN1CCC(CNC(=O)c2ccc(-c3cccc(CO)c3)nc2)C1` (stereo not given) | N | N | N |
| 42 | `Cc1cnc(CNc2cc(N3CCOCC3)nc(N)n2)cn1` | N | N | N |
| 43 | `Cc1cccc(-c2noc(CCc3ncnn3CCO)n2)c1` | N | N | N |
| 44 | `CCc1nc2cc(-c3cccc(CO)c3)cnc2[nH]1` | N | N | N |
| 45 | `CC(C)c1ccc(NC2CCCN(Cc3cc(=O)[nH]c(=O)[nH]3)C2)cc1` (stereo not given) | N | N | N |
| 46 | `Cc1nc(CCN)cc(N(C)Cc2cccc(C(F)(F)F)c2)n1` | Y | N | Y |
| 47 | `NC1CCCCN(C(=O)CCCc2cccs2)C1` (stereo not given) | N | N | N |
| 48 | `COc1ccc2[nH]c(C(=O)N3CC[C@H]4CC[C@@H](C3)N4)cc2c1` | N | N | N |
| 49 | `COc1cccc(-c2cc(CNC(=O)[C@H]3CC[C@@H](N)C3)on2)c1` | N | N | N |
| 50 | `CCn1c(N)nc2cc(C(=O)N3CC(OCc4ccc(F)cc4)C3)cnc21` | N | N | N |
| 51 | `Nc1cc(C(=O)N2C[C@H]3CC[C@@H]2CN(Cc2ccc(F)cc2)C3)ccn1` | N | N | N |
| 52 | `CCOC(=O)c1ncn(-c2cccc(Br)c2)c1N` | N | N | N |
| 53 | `CC(c1ccc(-c2cc(NCCO)nc(N)n2)cc1)N1CCCC1` (stereo not given) | N | N | N |
| 54 | `CCOc1cc(C2C(C#N)=C(N)Oc3cc(C)oc(=O)c32)ccc1OC(C)C` (stereo not given) | N | N | N |
| 55 | `O=C1c2ccccc2-c2cc(NCCO)nc3cccc1c23` | N | N | N |
| 56 | `COc1ccc(-c2nc3cnccn3c2Nc2ccc(C)cc2C)cc1OC` | N | - | N |
| 57 | `Cc1nnc2c(NCC(C)c3ccccc3)nc3ccccc3n12` (stereo not given) | N | - | N |
| 58 | `Nc1ccc(-c2nnc3n2CCCCC3)cc1` | N | N | N |
| 59 | `CSc1ncc(Cn2ccnc2-c2cc3n(n2)CCNC3)n1C` | N | N | N |
| 60 | `Cn1c(=O)n(C)c2cc(Nc3cc(N4CCOCC4)ncn3)ccc21` | N | N | N |
| 61 | `Cc1cc(C)n2c(Nc3ccc4c(c3)OCCO4)c(-c3ccco3)nc2n1` | N | N | N |
| 62 | `C=CCNC(=S)Nc1c(N)n(C)c(=O)n(C)c1=O` | N | N | N |
| 63 | `CCc1ccc(CN(C)C(=O)c2cn([C@H]3CC[C@@H](N)CC3)nn2)nc1` | N | N | N |
| 64 | `Cc1ccc(C(C)C)c(OCCNc2nc3c(c(=O)n(C)c(=O)n3C)n2C)c1` | N | N | N |
| 65 | `COc1ccc(-n2nc3ccc(N)cc3n2)cc1` | N | N | N |
| 66 | `O=C(NCCO)C(=O)Nc1nc(C23CC4CC(CC(C4)C2)C3)cs1` | N | N | N |
| 67 | `Cn1c2ccccc2c2ccc3c(c21)C(=O)C=CC3=O` | N | Y | N |
| 68 | `CC(C)OC(=O)CCCC=CC[C@@H]1[C@H](C=C[C@@H](O)COc2cccc(C(F)(F)F)c2)[C@H](O)C[C@@H]1O` | N | N | N |
| 69 | `CN(C)S(=O)(=O)CCNC(=O)c1cccc(C2CCCNC2)c1` (stereo not given) | N | N | N |
| 70 | `Cn1ccc(=Nc2ccc(NC(=O)c3ccc(/N=c4\ccn(C)c5ccc([N+](=O)[O-])cc45)cc3)cc2)cc1` | N | N | N |
| 71 | `Cn1ccnc1SCCNC1CCC2(CCNCC2)CC1` | N | N | N |
| 72 | `CCCNCc1c(C(=O)O)n(Cc2ccccc2F)c2cc(OC)ccc12` | N | - | N |
| 73 | `CCCc1cc(NC(C)CC)n2c(nc3ccccc32)c1C#N` (stereo not given) | N | N | N |
| 74 | `Cc1nc(N2CCC3(CC2)Nc2ccccc2NC3=O)cc(-n2cccn2)n1` | N | N | N |

5 of the entries, repeated:

SMILES	TPP	SAM-II	PreQ1
CCc1nc2cc(-c3cccc(CO)c3)cnc2[nH]1	N	N	N
Cc1cc(Nc2ccccc2)nc2cc(O)ccc12	N	N	N
NC(=O)CCn1cc(CNCc2cc(-c3ccco3)on2)c2ccccc21	N	N	N
CN(C)S(=O)(=O)CCNC(=O)c1cccc(C2CCCNC2)c1 (stereo not given)	N	N	N
O=C(NCCO)C(=O)Nc1nc(C23CC4CC(CC(C4)C2)C3)cs1	N	N	N

Source: the ROBIN nucleic acid binder screens (doi:10.1002/anie.202211358).